Data from PMC7348178.
Results are given in words; binding and its absence hold for the method and conditions named. Binding seen in cells or lysates may run through a third protein. Some entries that bind do so weakly or less than the wild type. For part of these data: Where a sequence is shown, tags or fusion partners need not be part of it. One block for each molecule: values may come before it.

Sequences of proteins named here, by UniProt entry; tags and fusion partners are left off.
UniProt O35099: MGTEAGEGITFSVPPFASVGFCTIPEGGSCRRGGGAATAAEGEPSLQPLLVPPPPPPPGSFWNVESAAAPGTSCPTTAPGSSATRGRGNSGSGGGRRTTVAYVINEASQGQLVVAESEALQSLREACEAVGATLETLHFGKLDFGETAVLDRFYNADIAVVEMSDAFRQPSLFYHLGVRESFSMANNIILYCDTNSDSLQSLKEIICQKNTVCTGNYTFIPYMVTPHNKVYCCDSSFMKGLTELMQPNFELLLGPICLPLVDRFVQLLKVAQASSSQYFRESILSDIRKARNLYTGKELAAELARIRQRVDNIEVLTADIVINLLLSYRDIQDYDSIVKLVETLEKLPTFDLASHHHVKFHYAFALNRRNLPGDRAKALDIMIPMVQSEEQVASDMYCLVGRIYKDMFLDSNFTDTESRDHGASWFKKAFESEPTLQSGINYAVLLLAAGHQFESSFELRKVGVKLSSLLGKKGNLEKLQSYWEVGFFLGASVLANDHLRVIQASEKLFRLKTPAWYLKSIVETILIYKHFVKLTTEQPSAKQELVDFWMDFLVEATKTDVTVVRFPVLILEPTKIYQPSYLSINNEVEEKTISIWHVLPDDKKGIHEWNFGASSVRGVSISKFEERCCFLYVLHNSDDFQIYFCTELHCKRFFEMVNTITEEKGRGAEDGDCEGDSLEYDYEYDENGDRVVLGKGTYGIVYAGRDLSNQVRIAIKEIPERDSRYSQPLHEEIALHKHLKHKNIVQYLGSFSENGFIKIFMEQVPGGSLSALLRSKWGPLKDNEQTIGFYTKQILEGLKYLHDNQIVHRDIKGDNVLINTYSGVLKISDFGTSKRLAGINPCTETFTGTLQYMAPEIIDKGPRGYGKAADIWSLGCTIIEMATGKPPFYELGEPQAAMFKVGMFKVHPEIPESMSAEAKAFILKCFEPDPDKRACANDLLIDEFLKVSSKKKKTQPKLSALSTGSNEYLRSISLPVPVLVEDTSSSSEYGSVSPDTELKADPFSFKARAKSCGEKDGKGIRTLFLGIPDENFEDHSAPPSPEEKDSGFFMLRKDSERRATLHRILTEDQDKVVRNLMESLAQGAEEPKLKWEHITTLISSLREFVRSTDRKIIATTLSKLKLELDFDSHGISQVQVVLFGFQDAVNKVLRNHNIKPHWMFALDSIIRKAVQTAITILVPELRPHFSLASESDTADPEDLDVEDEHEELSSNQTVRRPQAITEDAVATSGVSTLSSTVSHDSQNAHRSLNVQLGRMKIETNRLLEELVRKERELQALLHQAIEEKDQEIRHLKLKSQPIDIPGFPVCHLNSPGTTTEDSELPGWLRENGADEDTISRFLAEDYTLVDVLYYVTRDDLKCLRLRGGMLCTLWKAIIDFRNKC

Assays:
[1] = target: T1, VEGI‐251 (vascular endothelial growth inhibitor isoform 251), Flag-tagged, overexpressed in TAMs (human) (UniProt O95150); assay: co-IP; lysates of TAMs transiently overexpressing VEGI‐251 or vector control; precipitated with anti‐Flag antibody or IgG, blotted with anti‐ASK1 or anti‐TRAF2
T1 sequence: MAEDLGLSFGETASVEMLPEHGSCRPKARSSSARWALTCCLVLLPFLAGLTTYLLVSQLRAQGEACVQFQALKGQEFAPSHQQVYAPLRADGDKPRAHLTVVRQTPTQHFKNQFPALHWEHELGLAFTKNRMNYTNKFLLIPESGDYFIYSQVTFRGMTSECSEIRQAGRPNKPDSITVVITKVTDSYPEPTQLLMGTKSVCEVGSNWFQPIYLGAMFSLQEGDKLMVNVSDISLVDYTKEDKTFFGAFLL

[2] = target: T2, TNF receptor–associated factor 2 (TRAF2) (mouse (endogenous in TAMs)) (UniProt P39429); assay: co-IP; endogenous proteins; TAMs incubated with varying concentrations of rhVEGI‐251 for 4 h; lysates precipitated with protein G–conjugated anti‐TRAF2 antibody, blotted with anti‐ASK1 or anti‐TRAF2; lysis buffer 150 mmol/L NaCl, 25 mmol/L HEPES, 1% NP‐40
T2 sequence: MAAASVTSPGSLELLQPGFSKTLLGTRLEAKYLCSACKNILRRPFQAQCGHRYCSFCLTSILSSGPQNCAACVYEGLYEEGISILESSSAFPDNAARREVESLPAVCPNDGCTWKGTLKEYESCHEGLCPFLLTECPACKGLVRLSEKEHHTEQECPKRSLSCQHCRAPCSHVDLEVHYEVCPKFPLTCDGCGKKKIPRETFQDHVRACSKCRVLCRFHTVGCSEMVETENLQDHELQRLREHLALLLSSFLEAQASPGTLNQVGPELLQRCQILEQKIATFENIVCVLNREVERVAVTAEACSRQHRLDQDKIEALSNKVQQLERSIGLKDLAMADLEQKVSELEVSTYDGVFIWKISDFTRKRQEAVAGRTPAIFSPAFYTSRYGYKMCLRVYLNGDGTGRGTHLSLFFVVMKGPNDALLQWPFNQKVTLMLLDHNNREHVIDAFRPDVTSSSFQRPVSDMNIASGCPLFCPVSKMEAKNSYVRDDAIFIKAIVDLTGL

binding [1]: binds
binding [2]: binds
Molecule: apoptosis signal‐regulating kinase 1 (ASK1) (from UniProt O35099 1-1380)

binding [1]: binds
B1: TNF receptor–associated factor 2 (TRAF2) (protein, UniProt P39429 1-501)
chain: T2 sequence
